The source of these data is PubChem BioAssay AID2685 (National Center for Advancing Translational Sciences (NCATS), 2010).

The other results are listed elsewhere or left out. Shown are side measurements of this screen, not its main read-out; they come without a call. Most of these compounds were active or inconclusive in the main read-out, so they are no random draw. The note in brackets gives the kind of curve behind each potency; many fits are weak.

This assay in a line: qHTS Assay for Lipid Storage Modulators in Drosophila S3 Cells.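 For cell number change: cells counted by Cell Tracker Red CMTPX staining in the red channel.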 Conditions: BODIPY lipid droplet fluorescence, 18-24 h; for cell number change: measured here: cell count max response, cells fed with added oleic acid. In a few lines:
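Drosophila S3 cells got compounds at several concentrations plus oleic acid (400 uM solution). Laser-scanning cytometry with 488 nm excitation read lipid droplets at 500-530 nm and cells at 575-640 nm. Percent activity was relative to 20 uM Triacsin C.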

Where [1] appears, read: measured here: lipid fluorescence (Fed channel) AC50, cells fed with added oleic acid.
[2] abbreviates: measured here: cell number channel AC50, cells fed with added oleic acid.

For the compound `CCOC(=O)N1CCC(NC(=O)CS(=O)Cc2nc(-c3ccc(C)cc3)oc2C)CC1` (configuration not stated), the cell number change was -15.1%. Besides, under setting [1], the concentration at half-maximal activity (AC50) is 5.8 µM [falling, single point]. For the compound `CCOC(=O)N1CCC(NC(=O)Cc2cn(C)c3ccccc23)CC1`, the cell number change was -60.4%. Under setting [2], the concentration at half-maximal activity (AC50) is 0.0206 µM [falling, full curve]. Also, the half-maximal activity concentration (AC50) under setting [1] was 0.366 µM [falling, full curve, poor fit].

For the compound `CNS(=O)(=O)c1cccc(C(=O)OCC(=O)c2cc(C)n(-c3ccc4c(c3)OCO4)c2C)c1`, the cell number change worked out at 3.32%. Further, the concentration at half-maximal activity (AC50) under setting [1] is 6.51 µM [falling, single point]. As for `O=C(O)CCn1c(C2CCCCC2)nc2ccccc21`, the cell number change was -15%. Also, under setting [1], the half-maximal activity concentration (AC50) was 1.84 µM [falling, full curve, poor fit]. With `CCOc1ccc(C(=O)Nc2ccc(C(=O)N3CCOCC3)cc2)c(OCC)c1`, the AC50 under setting [1] is 0.0731 µM [falling, full curve, poor fit]. As to `O=C(COc1ccc(F)cc1Cl)Nc1ccc(N2CCOCC2)cc1N1CCOCC1`, the AC50 under setting [2] was 6.51 µM [falling, single point].

`CCCP(=O)(CC(=O)N(CC)CC)c1ccccc1` (configuration not stated): the cell number change was -1.65%. Moreover, the concentration at half-maximal activity (AC50) under setting [1] was 0.0326 µM [falling, full curve, poor fit].

Consider `COCCn1c(-c2ccc(Br)cc2)csc1=Nc1cccnc1`, for which the cell number change stood at 14.2%. As for `CCOC(=O)C1Cc2c([nH]c3ccccc23)CN1` (configuration not stated), the cell number change stood at 16.1%. Further, the AC50 under setting [1] was 5.8 µM [falling, single point]. For `O=C(Oc1ccc(N(Cc2cccs2)C2=NS(=O)(=O)c3ccccc32)cc1)c1ccccc1F`, the cell number change came out at 6.96%. Also, under setting [1], the concentration at half-maximal activity (AC50) was 6.51 µM [rising, single point].

`O=C(CC1C(=O)NCCN1Cc1c(F)cccc1Cl)NCCCn1cccn1` (configuration not stated): the cell number change came to 6.06%. On to `COc1cc(OC)cc(-c2sc3ccc(OC)cc3c2C#CCCO)c1`, for which the cell number change amounted to 8.54%. Besides, the AC50 under setting [1] is 0.00461 µM [rising, full curve, poor fit]. Turning to `COc1ccc(CNC(=S)Nc2cc(OC)ccc2OC)cc1`, the cell number change is 21.2%. Also, the concentration at half-maximal activity (AC50) under setting [1] is 16.4 µM [rising, single point].

In the case of `Cc1ccc(-c2cnc(-c3ccccc3C(=O)O)o2)cc1`, the cell number change came out at 27.9%.

`CC(=O)NC(Cc1cc(C)ccc1C)C(=O)N1CCN(C(=O)c2ccc([N+](=O)[O-])cc2)CC1` (configuration not stated): the half-maximal activity concentration (AC50) under setting [1] was 5.8 µM [rising, single point]. In the case of `c1cc(CSc2nnc(-c3ccc4c(c3)OCO4)o2)ccn1`, the cell number change is 8.61%. The same measure, in the same setting: in the case of `CN(C)C/C(Cl)=C(\Cl)c1ccccc1` it was 1.84%. Consider `CCn1c(SCC(=O)Nc2cccc(O)c2)nc2c1c(=O)n(C)c(=O)n2C`, for which the cell number change was found to be 59.6%. Moreover, the half-maximal activity concentration (AC50) under setting [2] was 18.4 µM [rising, single point]. In addition, under setting [1], the half-maximal activity concentration (AC50) is 0.82 µM [falling, full curve].

As to `Cc1ccc(NC(=O)Cc2cc(C(=O)O)c3ccccc3n2)c(C)c1`, the cell number change was -52.5%. Under setting [2], the half-maximal activity concentration (AC50) is 29.1 µM [falling, single point]. The half-maximal activity concentration (AC50) under setting [1] is 29.1 µM [falling, single point]. For the compound `Nc1cc2ccccc2oc1=O`, the cell number change was -6.45%. The AC50 under setting [2] was 0.517 µM [falling, single point]. Further, under setting [1], the AC50 is 6.51 µM [falling, single point]. As to `COc1ccc(S(=O)(=O)/N=C2\C=C(NS(=O)(=O)c3ccccc3)C(=O)c3ccccc32)cc1`, the cell number change is -7.14%. On to `COc1ccc(NS(=O)(=O)c2cc(NC(=O)c3cnc(C)cn3)ccc2N2CCCCC2)cc1`, for which the cell number change is -27.2%. Also, the concentration at half-maximal activity (AC50) under setting [2] is 4.11 µM [rising, single point]. Besides, the AC50 under setting [1] was 20.6 µM [falling, single point]. On to `O=C(NCCN1CCOCC1)c1cnn2c(-c3ccccc3)cc(-c3ccccc3)nc12`, for which the cell number change is -34.7%. Consider `O=C(COc1ccc(S(=O)(=O)NC2CCCCC2)cc1)NCC1CCCO1` (configuration not stated), for which the cell number change came to 4.06%. The half-maximal activity concentration (AC50) under setting [1] was 16.4 µM [rising, single point]. Regarding `O=C(O)/C=C/c1cn(-c2ccccc2)nc1-c1ccccc1`, the cell number change amounted to 27.5%. Moreover, the AC50 under setting [1] was 16.4 µM [rising, single point]. With `O=C(c1ccco1)N1CCCC(N2CCN(c3ccccc3F)CC2)C1` (configuration not stated), the AC50 under setting [1] is 4.61 µM [rising, partial curve, poor fit]. For `C/C(Cn1cnc([N+](=O)[O-])n1)=N/NC(=O)COc1c(Cl)cc(Cl)cc1Cl`, the cell number change came to 13.7%.

Take `O=C(CNC(=O)c1cccc(S(=O)(=O)N2CCc3ccccc32)c1)Nc1ccc(F)c(F)c1F`: the cell number change was determined as 20.1%. Further, the AC50 under setting [2] was 0.58 µM [rising, full curve, poor fit]. As for `CCOC(=O)c1c(C)c(C(=O)N2CCCCCC2)c(C)n1CC`, the cell number change was -48.7%. Besides, under setting [2], the AC50 is 32.6 µM [falling, single point]. Under setting [1], the half-maximal activity concentration (AC50) is 5.8 µM [falling, partial curve]. With `CCN(CC)S(=O)(=O)c1ccc(NC(=O)CCC2CCCCC2)cc1`, the cell number change is -8.52%. For the same compound, the AC50 under setting [1] is 29.1 µM [falling, single point]. Take `CC1CCN(c2c(NCC3CCC(C(=O)N4CCc5ccccc5C4)CC3)c(=O)c2=O)CC1` (configuration not stated): the cell number change amounted to 12.8%. The AC50 under setting [1] is 23.1 µM [falling, partial curve, poor fit]. In the case of `COc1ccccc1NC(=O)Cn1c2ccc(F)cc2c2nc3n(c(=O)c21)CCS3`, the cell number change was 8.55%. Under setting [1], the concentration at half-maximal activity (AC50) was 3.26 µM [falling, full curve]. Regarding `COC(=O)c1sccc1S(=O)(=O)Nc1ccc(S(N)(=O)=O)cc1`, the cell number change was -2.99%. With `O=C1CCc2cc(S(=O)(=O)Nc3ccccc3)cc3c2N1CCC3`, the half-maximal activity concentration (AC50) under setting [1] was 1.84 µM [falling, partial curve]. As to `COc1ccccc1CCNC(=O)CSc1nc(-c2ccco2)cc(C(F)(F)F)n1`, the cell number change is -20.5%. The AC50 under setting [1] is 3.66 µM [falling, single point].

Take `O=C(O)C1Cc2[nH]cnc2C(c2cccc([N+](=O)[O-])c2)N1` (configuration not stated): the AC50 under setting [2] was 0.164 µM [rising, full curve, poor fit]. Regarding `O=C(Cc1ncc(C(F)(F)F)cc1Cl)NC1CC1`, the cell number change is -23.5%. For the compound `Cc1cc(N2C(=O)C(O)=C(C(=O)c3cc4ccccc4o3)C2c2cccs2)no1` (configuration not stated), the cell number change was -12.5%. Moreover, the concentration at half-maximal activity (AC50) under setting [1] was 6.51 µM [falling, single point].

Take `O=C1C=C(c2ccc(Br)c3ccccc23)C[C@@H](c2ccc3c(c2)OCO3)C1`: the cell number change was -18.3%. The AC50 under setting [1] was 9.2 µM [falling, single point]. As to `COCCn1c(SCC(=O)N2CCOCC2)nnc1-c1ccncc1`, the cell number change is -3.81%. In addition, the half-maximal activity concentration (AC50) under setting [1] was 0.0058 µM [falling, full curve, poor fit]. On to `COc1cc(C)c(CNc2cc(C)cc(C)c2)cc1C`, for which the half-maximal activity concentration (AC50) under setting [2] is 3.26 µM [rising, partial curve]. As to `O=C(NCc1ccc2c(c1)OCO2)c1cc(F)c(F)cc1Cl`, the cell number change was -9.38%. For the same compound, the concentration at half-maximal activity (AC50) under setting [1] is 0.259 µM [rising, full curve, poor fit]. Turning to `COc1ccc(NC(=O)C(c2cc3c(cc2[N+](=O)[O-])OCO3)N(C)Cc2ccccc2)cc1` (configuration not stated), under setting [1], the AC50 is 4.11 µM [rising, single point]. For the compound `Cc1ccc2sc(N(CCN(C)C)C(=O)/C=C/c3cccs3)nc2c1C`, the cell number change is 26.8%. In addition, the AC50 under setting [1] was 4.61 µM [falling, full curve]. For the compound `COCC(C)n1c(C)cc(C(=O)CSc2nnc(N)s2)c1C` (configuration not stated), the cell number change is 45.2%. Under setting [2], the AC50 was 7.31 µM [rising, partial curve, poor fit]. For the same compound, under setting [1], the AC50 is 5.8 µM [falling, partial curve]. Consider `O=C(CCC(=O)N(CC(=O)NC1CCCCC1)CC1CCCO1)Nc1nccs1` (configuration not stated), for which the cell number change was -14.2%. Under setting [1], the AC50 is 7.31 µM [falling, single point]. As for `Nc1nc(Nc2cccc(F)c2)nc2ccccc12`, the cell number change was -2.99%. Moreover, the AC50 under setting [1] was 0.58 µM [rising, full curve].

With `O=C(Nc1cc(S(=O)(=O)N2CCOCC2)ccc1N1CCOCC1)c1ccc(S(=O)(=O)N2CCCCC2)cc1`, the cell number change is -79%. Take `Cc1cc(S(=O)(=O)NC2CCN(Cc3ccccc3)CC2)c(C)cc1Cl`: the cell number change was -28.6%. In addition, under setting [1], the AC50 is 29.1 µM [falling, single point]. Regarding `CC1Cc2cc(/C(O)=C3/C(=O)C(=O)N(CCN4CCOCC4)C3c3cccc(Cl)c3)ccc2O1` (configuration not stated), the cell number change is -50.7%. Also, the AC50 under setting [2] is 16.4 µM [falling, single point]. With `Cc1nc(Nc2ccccc2)sc1C`, the cell number change is -7.23%. Further, the concentration at half-maximal activity (AC50) under setting [2] is 0.651 µM [falling, single point]. In addition, the half-maximal activity concentration (AC50) under setting [1] is 0.58 µM [falling, single point]. Turning to `Cc1ccc(-c2cc(C(=O)NCc3ccc4c(c3)OCO4)[nH]n2)c(O)c1C`, the cell number change was 6.14%. Besides, the AC50 under setting [1] is 2.59 µM [rising, full curve, poor fit]. As for `CC(C)(C)NC(=O)C(c1ccc(F)cc1)N(CC1CCCO1)C(=O)CCC(=O)Nc1ccccn1` (configuration not stated), the cell number change was found to be 3.15%. In the case of `Cc1[nH]c(=O)c(C(=O)/C=C/c2ccccc2F)c2c1CCCC2`, the cell number change is -47.2%. Under setting [2], the AC50 is 29.1 µM [falling, single point]. `CN(C(=O)COC(=O)c1ccc(=O)n(Cc2ccccc2)n1)c1ccccc1`: the cell number change is -12.1%. For `CCOC(=O)C1=C(CC)Nc2ccccc2N=C1NC(=O)Nc1ccccc1OC`, the cell number change came out at 111%. In addition, the AC50 under setting [2] is 3.66 µM [rising, partial curve]. The AC50 under setting [1] is 2.59 µM [rising, full curve].

As for `Cc1noc(C)c1S(=O)(=O)N1CCCC1C(=O)O` (configuration not stated), the cell number change is -27.6%. Besides, the AC50 under setting [1] was 29.1 µM [rising, partial curve, poor fit]. With `O=C(c1ccc([N+](=O)[O-])cc1)N1CCN(C(=O)c2ccco2)CC1`, the cell number change is -18.8%. Also, the half-maximal activity concentration (AC50) under setting [1] is 0.146 µM [falling, full curve, poor fit].

`CCC(=O)Nc1ccc(-c2nnc(-c3ccccc3)o2)cc1`: the cell number change was -8.55%. The AC50 under setting [1] was 6.51 µM [falling, single point]. On to `COc1cccc(C(=O)OC(C)CN2CCCC2)c1` (configuration not stated), for which the cell number change came out at 10.8%. The AC50 under setting [1] is 16.4 µM [rising, single point].

Turning to `O=C(COc1cc(F)ccc1[N+](=O)[O-])Nc1ccc2c(c1)OCO2`, the cell number change is -9.1%. Under setting [1], the half-maximal activity concentration (AC50) is 4.11 µM [rising, single point]. For the compound `Oc1c(C(c2ccco2)N2CCC3(CC2)OCCO3)sc2ncnn12` (configuration not stated), the cell number change stood at 10.1%. The half-maximal activity concentration (AC50) under setting [1] is 29.1 µM [falling, single point].
